Source: PMC5943338
Results are given in words; binding and its absence hold for the method and conditions named. In cells and extracts the contact can be indirect. These calls come from enrichment with a bait or labelling near it, and not all partners need be listed. Tags and fused reporters may be left off the sequences shown.

Protein sequences, listed by entry. Tags and fused reporters are not part of them.
UniProt Q8WUM4: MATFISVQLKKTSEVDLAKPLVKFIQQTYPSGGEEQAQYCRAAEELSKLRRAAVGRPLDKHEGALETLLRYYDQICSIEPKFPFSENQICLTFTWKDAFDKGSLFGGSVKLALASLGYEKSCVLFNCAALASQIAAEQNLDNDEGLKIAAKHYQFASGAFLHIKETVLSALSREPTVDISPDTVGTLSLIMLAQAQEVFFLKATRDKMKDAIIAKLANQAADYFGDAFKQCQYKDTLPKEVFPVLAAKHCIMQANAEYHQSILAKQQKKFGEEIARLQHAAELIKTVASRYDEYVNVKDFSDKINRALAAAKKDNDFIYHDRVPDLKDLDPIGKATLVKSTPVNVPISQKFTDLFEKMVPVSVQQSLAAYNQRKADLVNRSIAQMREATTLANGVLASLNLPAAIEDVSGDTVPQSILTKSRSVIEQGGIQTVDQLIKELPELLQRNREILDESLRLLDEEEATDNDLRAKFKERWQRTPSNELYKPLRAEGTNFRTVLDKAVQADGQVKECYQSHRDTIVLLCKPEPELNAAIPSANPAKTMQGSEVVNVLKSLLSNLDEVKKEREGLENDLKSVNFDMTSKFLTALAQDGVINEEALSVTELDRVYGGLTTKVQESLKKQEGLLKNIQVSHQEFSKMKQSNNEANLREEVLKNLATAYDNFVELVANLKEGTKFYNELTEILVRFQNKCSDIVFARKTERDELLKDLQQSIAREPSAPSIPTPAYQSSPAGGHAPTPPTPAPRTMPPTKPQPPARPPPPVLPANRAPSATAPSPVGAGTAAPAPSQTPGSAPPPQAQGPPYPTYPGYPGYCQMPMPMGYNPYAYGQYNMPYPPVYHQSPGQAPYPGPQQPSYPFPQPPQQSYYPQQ
UniProt Q99816: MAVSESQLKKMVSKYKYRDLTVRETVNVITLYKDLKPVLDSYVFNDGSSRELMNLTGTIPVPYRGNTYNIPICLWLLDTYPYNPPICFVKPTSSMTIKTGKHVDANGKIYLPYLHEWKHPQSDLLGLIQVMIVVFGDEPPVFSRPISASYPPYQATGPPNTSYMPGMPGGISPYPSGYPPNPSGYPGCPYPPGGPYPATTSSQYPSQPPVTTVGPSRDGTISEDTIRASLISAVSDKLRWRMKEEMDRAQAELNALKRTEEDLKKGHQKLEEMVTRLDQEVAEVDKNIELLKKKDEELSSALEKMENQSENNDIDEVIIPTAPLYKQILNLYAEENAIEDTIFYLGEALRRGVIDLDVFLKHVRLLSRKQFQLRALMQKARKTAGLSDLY
UniProt Q15691: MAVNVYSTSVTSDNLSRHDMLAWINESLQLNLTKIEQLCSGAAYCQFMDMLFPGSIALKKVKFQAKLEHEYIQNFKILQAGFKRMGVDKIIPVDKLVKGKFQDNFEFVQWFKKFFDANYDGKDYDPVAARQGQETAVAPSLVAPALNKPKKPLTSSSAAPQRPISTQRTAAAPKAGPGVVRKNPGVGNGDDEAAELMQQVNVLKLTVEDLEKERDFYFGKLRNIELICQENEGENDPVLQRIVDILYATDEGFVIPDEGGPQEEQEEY
UniProt P19838: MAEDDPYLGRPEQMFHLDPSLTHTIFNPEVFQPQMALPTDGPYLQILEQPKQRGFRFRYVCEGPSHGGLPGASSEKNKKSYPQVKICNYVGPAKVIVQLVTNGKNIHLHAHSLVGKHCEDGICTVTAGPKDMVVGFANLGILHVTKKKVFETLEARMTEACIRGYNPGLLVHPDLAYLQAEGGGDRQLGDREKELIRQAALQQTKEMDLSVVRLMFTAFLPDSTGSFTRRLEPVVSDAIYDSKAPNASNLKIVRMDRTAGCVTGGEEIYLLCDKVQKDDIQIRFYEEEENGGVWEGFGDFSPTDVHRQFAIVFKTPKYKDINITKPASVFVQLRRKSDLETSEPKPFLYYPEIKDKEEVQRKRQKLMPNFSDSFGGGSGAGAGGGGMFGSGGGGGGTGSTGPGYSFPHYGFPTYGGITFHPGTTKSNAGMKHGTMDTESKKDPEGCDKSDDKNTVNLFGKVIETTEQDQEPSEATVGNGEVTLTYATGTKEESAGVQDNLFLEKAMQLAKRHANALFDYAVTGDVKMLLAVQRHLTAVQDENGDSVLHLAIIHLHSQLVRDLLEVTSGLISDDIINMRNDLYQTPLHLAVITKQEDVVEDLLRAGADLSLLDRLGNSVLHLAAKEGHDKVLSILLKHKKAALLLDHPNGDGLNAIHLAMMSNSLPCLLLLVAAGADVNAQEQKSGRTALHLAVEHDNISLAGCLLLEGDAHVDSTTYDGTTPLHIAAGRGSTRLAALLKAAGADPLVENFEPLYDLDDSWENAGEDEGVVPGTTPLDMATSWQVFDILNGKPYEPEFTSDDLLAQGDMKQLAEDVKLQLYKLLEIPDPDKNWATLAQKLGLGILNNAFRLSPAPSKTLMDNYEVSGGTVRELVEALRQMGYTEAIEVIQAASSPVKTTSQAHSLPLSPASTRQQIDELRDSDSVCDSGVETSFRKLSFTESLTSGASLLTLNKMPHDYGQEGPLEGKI
UniProt P62136: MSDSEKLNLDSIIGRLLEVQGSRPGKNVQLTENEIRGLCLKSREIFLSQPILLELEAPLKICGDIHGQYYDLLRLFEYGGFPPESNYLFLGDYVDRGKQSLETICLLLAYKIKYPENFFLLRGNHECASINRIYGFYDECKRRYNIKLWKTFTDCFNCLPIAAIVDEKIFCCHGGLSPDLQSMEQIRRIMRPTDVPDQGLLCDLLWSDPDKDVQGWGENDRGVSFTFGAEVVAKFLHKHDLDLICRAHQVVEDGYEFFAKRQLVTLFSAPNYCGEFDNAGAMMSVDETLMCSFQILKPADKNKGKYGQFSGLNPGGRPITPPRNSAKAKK
UniProt P62140: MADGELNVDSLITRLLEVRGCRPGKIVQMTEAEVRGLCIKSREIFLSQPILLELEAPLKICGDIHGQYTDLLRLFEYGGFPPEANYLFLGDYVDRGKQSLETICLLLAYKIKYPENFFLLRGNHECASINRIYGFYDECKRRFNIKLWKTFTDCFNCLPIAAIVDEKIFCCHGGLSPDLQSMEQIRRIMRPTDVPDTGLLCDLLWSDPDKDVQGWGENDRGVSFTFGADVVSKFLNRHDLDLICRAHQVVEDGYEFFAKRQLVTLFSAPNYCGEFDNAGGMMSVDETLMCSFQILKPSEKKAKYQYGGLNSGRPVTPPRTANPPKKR
UniProt P36873: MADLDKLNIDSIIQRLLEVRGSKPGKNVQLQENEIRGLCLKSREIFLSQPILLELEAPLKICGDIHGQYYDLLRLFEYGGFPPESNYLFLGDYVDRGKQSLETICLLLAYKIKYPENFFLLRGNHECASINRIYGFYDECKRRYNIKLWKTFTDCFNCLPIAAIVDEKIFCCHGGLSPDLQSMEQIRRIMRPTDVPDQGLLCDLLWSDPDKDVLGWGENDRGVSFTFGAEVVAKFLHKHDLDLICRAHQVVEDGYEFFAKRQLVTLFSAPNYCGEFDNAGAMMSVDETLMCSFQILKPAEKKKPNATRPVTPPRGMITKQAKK

target: T1, FLAG-HA-CEP55 (stably expressed in HeLa cells) (UniProt Q53EZ4); assay: affinity purification with mass spectrometry; tandem affinity purification from HeLa cells stably expressing the FLAG-HA-tagged bait (iASPP or CEP55): lysis in BC100 buffer (20 mM Tris-Cl pH 7.9, 100 mM NaCl, 0.2 mM EDTA, 20% glycerol) with 0.2% Triton X-100; anti-FLAG M2 agarose, FLAG peptide elution, then anti-HA agarose, HA peptide elution; SDS-PAGE, gel bands sequenced by LC-MS/MS
T1 sequence: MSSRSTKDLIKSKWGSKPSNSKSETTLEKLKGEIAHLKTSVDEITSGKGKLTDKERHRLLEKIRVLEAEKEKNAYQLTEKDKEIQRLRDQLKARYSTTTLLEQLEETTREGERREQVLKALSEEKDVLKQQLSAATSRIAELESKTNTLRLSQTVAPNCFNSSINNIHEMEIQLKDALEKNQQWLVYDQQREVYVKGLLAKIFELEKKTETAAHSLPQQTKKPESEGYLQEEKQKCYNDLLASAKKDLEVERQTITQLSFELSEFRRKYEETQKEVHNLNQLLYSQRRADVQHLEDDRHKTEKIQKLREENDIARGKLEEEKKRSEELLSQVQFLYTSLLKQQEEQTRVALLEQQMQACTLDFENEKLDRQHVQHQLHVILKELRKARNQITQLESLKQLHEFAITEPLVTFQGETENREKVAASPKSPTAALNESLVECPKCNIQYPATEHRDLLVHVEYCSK

binding, binds:
ALIX, endogenous (from UniProt Q8WUM4 1-868)
TSG101, endogenous (from UniProt Q99816 1-390)

target: FLAG-HA-iASPP (stably expressed in HeLa cells) (UniProt Q8WUF5); assay: as above

binding, binds:
MAPRE1 (microtubule plus-end-tracking protein), endogenous (from UniProt Q15691 1-268)
MAPRE3 (microtubule plus-end-tracking protein), endogenous (from UniProt Q9UPY8 1-281)
NFKB1 (NF-κB subunit), endogenous (from UniProt P19838 1-968)
PP1α (catalytic subunit of protein phosphatase 1), endogenous (from UniProt P62136 1-330) (enzyme)
PP1β (catalytic subunit of protein phosphatase 1), endogenous (from UniProt P62140 1-327) (enzyme)
PP1γ (catalytic subunit of protein phosphatase 1), endogenous (from UniProt P36873 1-323) (enzyme)
